Data source: PubChem BioAssay AID720505 (Drosophila RNAi Screening Center, 2013)
In all, the deposit lists about 20,000 reagents; shown is an unselected part of those with a known target gene and a result. Of all reagents, about 2,100 (10%) are marked active. 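Raw plate signals without normalisation; calls rest on control-based scores that were not deposited; replicate 2 separates called from uncalled poorly.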 A plus sign joins genes that one reagent is predicted to hit. No sequences are given here. The record does not give: the amount of reagent, the time to read-out.

Test: 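Fly regulators or components of the CRAC channel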 (primary screen)
System: Drosophila S2R+ cells
Reagent: long dsRNA against Drosophila genes
Treatment: thapsigargin (2 µM) in calcium-free buffer to empty internal stores, then 2 mM calcium added back
Measurement: 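Stores emptied by 2 µM thapsigargin without calcium, then 2 mM calcium re-added; fluo-4 fluorescence followed by FLIPR in 384-well plates, per-well averaged endpoint, raw; two screen passes, some wells retested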
Scale: calcium signal and retest calcium signal: higher = more calcium entry after store depletion
Rule for the call: 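Knock-downs counted as hits when calcium entry dropped relative to STIM1 positive and Rho1 negative controls present on each plate; roughly 1500 genes called, with reductions of differing size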
Meaning of the calls: active = called as lowering calcium entry; inactive = not called

predicted target	DRSC id	calcium signal, replicate 1	calcium signal, replicate 2	retest calcium signal, replicate 1	retest calcium signal, replicate 2	outcome
sns	DRSC06423	119	194			inactive
sns	DRSC07687	90	166			inactive
sns	DRSC07688	132	169			inactive
sns	DRSC07689	108	135			inactive
sns	DRSC07691	83	101			inactive
sns	DRSC07692	95.6	138			inactive
TTLL12	DRSC06555	113	97.4			inactive
CG13096	DRSC02198	188	123			inactive
CG31913	DRSC00892	98.2	100			inactive
CG8910	DRSC07414	208	144			inactive
ea	DRSC16939	110	109			inactive
CG30196	DRSC04156	79.4	149			inactive
CG16786	DRSC04281	85.8	130			inactive
CG3088	DRSC10352	117	140			inactive
CG7376	DRSC10829	119	136			inactive
CG13829	DRSC14679	266	116			inactive
TwdlR	DRSC14736	96.6	146			inactive
ppk3	DRSC04275	164	205			inactive
Corin	DRSC06818	66	122	144	125	inactive
CG11583	DRSC08202	111	119			inactive
CG18596	DRSC15355	188	336			inactive
Nup160	DRSC02774	157	122			inactive
Tsp42En	DRSC06185	99.4	138			inactive
Hr38	DRSC03345	203	121			inactive
Hr38	DRSC23230	125	156			inactive
Alp13	DRSC15781	80.6	89.8			inactive
CG3894	DRSC01762	85.3	4669			inactive
CG3894	DRSC04012	71.9	79.4			active
CG3894	DRSC04429	135	146	94.9	74.8	inactive
CG7582	DRSC16261	122	90.2			inactive
CG13847	DRSC14697	169	267			inactive
CG13847	DRSC23172	143	106			inactive
CG13581	DRSC04216	111	166			inactive
hubl	DRSC06825	121	130			inactive
CG33514	DRSC08471	73.4	88	85.9	93.1	inactive
CG33514	DRSC08472	81.9	82			inactive
CG33514	DRSC21670	209	99.9			inactive
out	DRSC19347	170	149			inactive
PGRP-SC2	DRSC06481	148	238			inactive
LBR	DRSC04298	82.5	105			inactive
CG2006 + Spase12	DRSC14316	123	108			inactive
Rdh1	DRSC06812	140	107			inactive
CG5758	DRSC02889	121	116	113	103	inactive
CG5758	DRSC02890	124	109			inactive
CG3408	DRSC10360	37.6	110			active
CG15478	DRSC18057	267	74.3			inactive

Sorted by “calcium signal, replicate 1” (lowest first): 16 of the entries above.
predicted target	DRSC id	calcium signal, replicate 1	calcium signal, replicate 2	retest calcium signal, replicate 1	retest calcium signal, replicate 2	outcome
CG3894	DRSC04012	71.9	79.4			active
CG33514	DRSC08471	73.4	88	85.9	93.1	inactive
Alp13	DRSC15781	80.6	89.8			inactive
CG33514	DRSC08472	81.9	82			inactive
CG3894	DRSC01762	85.3	4669			inactive
CG13581	DRSC04216	111	166			inactive
hubl	DRSC06825	121	130			inactive
CG7582	DRSC16261	122	90.2			inactive
Hr38	DRSC23230	125	156			inactive
CG3894	DRSC04429	135	146	94.9	74.8	inactive
CG13847	DRSC23172	143	106			inactive
PGRP-SC2	DRSC06481	148	238			inactive
CG13847	DRSC14697	169	267			inactive
out	DRSC19347	170	149			inactive
Hr38	DRSC03345	203	121			inactive
CG33514	DRSC21670	209	99.9			inactive

More records:
predicted target	DRSC id	calcium signal, replicate 1	calcium signal, replicate 2	retest calcium signal, replicate 1	retest calcium signal, replicate 2	outcome
CG9254	DRSC01969	87.9	144			inactive
cona	DRSC16281	206	178			inactive
CG13502	DRSC04147	63.9	177			inactive
CG1116	DRSC12166	128	118			inactive
CG7600	DRSC09681	116	101			inactive
CG31784	DRSC01574	75.8	177			inactive
beta-PheRS	DRSC15859	129	374			inactive
slmb	DRSC17056	200	332			inactive
sowah	DRSC09758	147	112			inactive
CG4842	DRSC10453	107	172			inactive
pck	DRSC18565	75.1	81.1			inactive
sac	DRSC12237	111	247			inactive
Or19a	DRSC20684	222	91.2			inactive
CG13540	DRSC04182	85.1	141			inactive
CCT7	DRSC16410	121	169			inactive
CG13248	DRSC11696	81.2	129			inactive
Wwox	DRSC03030	136	238	79.1	87.1	inactive
Wwox	DRSC22872	88.2	155			inactive
CG42854	DRSC19173	47.2	65.1			active
trc	DRSC11406	77.9	108			inactive
CG14190	DRSC19545	82.5	108			inactive
RIC-3	DRSC04243	158	90.2			inactive
RIC-3	DRSC04543	54.5	124			inactive
CG31663	DRSC00078	68.4	132			inactive
CG31663	DRSC00389	144	272			inactive
CG31663	DRSC00390	178	185			inactive
CG31663	DRSC00393	129	105			inactive
BCAS2	DRSC15693	106	112			inactive
in	DRSC11888	97.3	106			active
lqf	DRSC11363	97.3	151			inactive
CG18327	DRSC06722	107	187			inactive
CG6660	DRSC16087	153	209			inactive
ko	DRSC11893	113	95.1			inactive
Hrb87F	DRSC16708	97.2	90.8			inactive
glu	DRSC03539	92.6	116			inactive
Parp1	DRSC07725	113	91.5			inactive
Parp1	DRSC07778	88.6	159			inactive
Parp1	DRSC07780	74.4	144			inactive
PIG-C	DRSC08241	85.8	116			inactive
alphaKap4	DRSC09823	72.5	70.1			inactive
ArgRS	DRSC20138	112	148			inactive
Phae1	DRSC02554	101	97.2			inactive
St4	DRSC07008	105	162			inactive
CG31949	DRSC00110	82.7	95.7			inactive
CG30109 + CG30108	DRSC05674	73.9	93.5			active
Nlg2	DRSC00957	83.7	120			inactive
Nlg2	DRSC03578	170	123			inactive
Cmtr1	DRSC18400	109	117			inactive
CG14011	DRSC02343	141	95.8			inactive
CG4757	DRSC14130	67.9	76.3			active
Apt1	DRSC10348	66.1	64			inactive
CG18744	DRSC15381	158	174			inactive
CG3566	DRSC18311	59.2	225			active
Pat1	DRSC17750	109	121			inactive
serp	DRSC11035	116	138			inactive
serp	DRSC11036	111	181			inactive
5-HT2B	DRSC16360	123	137			inactive
5-HT2B	DRSC16362	138	132			inactive
CG2310	DRSC15438	137	116			inactive
CG6329	DRSC06976	211	190			inactive
